{
  "source": "paper PMC11643744",
  "about": "(Molecules, 2024)",
  "assay": "general procedure: Fmoc solid-phase peptide synthesis; TentaGel S RAM resin (loading 0.25 mM/g); TBTU/HOBt/N-methylmorpholine",
  "settings": "whole synthesis",
  "note": "Some peptides are written in HELM: one residue between dots, names in brackets for other building blocks, links after the first $.",
  "data": [
    {"substance": "PEPTIDE1{A.G.Y.L.L.G.K.I.N.L.K.A.L.A.A.L.A.K.K.I.L.[am]}$$$$V2.0", "values": [
      {"measurement": "isolated yield", "value": 34, "unit": "%"}
    ]},
    {"substance": "PEPTIDE1{[Prop].R.R.R.R.R.R.R.R.R.[am]}$$$$V2.0", "values": [
      {"measurement": "isolated yield", "value": 24, "unit": "%"}
    ]},
    {"substance": "PEPTIDE1{[Prop].Y.G.R.K.K.R.R.Q.R.R.R.[am]}$$$$V2.0", "values": [
      {"measurement": "isolated yield", "value": 24, "unit": "%"}
    ]}
  ]
}
